Where a chain is given by its changes, count along the chain named. Results are given in words; binding and its absence hold for the method and conditions named. In cells and extracts the contact can be indirect. Some results given as binding are weak or reduced against the parent protein; the word gives no strength. Sequences can lack the tags named with a protein.
Experiments:
Grx4-GFP (S. pombe) = target: T1, Grx4-GFP (S. pombe) (UniProt O74790); experiment: co-IP; total native protein extracts of S. pombe strains with tagged genes, immuno-precipitated with GFP-trap beads, blotted with anti-Myc or anti-GFP; cells treated or not with 0.25 mM DIP; for Grx4-Fep1 also in cells lacking Fra2
T1 sequence: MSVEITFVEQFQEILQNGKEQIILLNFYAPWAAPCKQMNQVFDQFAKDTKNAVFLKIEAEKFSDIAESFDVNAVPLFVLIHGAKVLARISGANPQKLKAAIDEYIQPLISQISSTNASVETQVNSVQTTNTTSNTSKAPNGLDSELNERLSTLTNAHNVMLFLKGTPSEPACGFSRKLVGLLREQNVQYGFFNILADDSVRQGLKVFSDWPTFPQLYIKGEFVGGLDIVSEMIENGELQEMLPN

[1] = target: T2, Grx4.C172S-GFP (S. pombe) (UniProt O74790); experiment: as above
T2 sequence: T1 sequence with C172S

B1: Php4-Myc (protein, UniProt O14318 1-295)
chain: MESSKSPSEVEKSSSASPAPQKPMIRVSKQWVVPPRPKPGRKPALDALGRRKAPIKPRPGPTSALSVEEAKFRVREKQYQDTIGKLQKENNELLEQLEMLQAQLKNSTLDSPKEVEVNSEVVKPDSATTENENRYVNQYNYPVEPPCAKNAVYTEIPIELDPHAFLGDSAKRIRVDSDSKDAKSVPSENGRIRVSMSPQNEINFTPENPAVMEKIRKRGVCNSVEGCLYSGSPKSVKRVRESEETKVYAQLLIDLHKSSKSAPMLKAGPSIAFKLPTMEPNFNDVRPVTSISSSS
Question: With B1 as the binder, how does the binding (Grx4-GFP (S. pombe)) read?
Answer: binds

B2: Fep1-Myc (protein, UniProt Q10134 1-564)
chain: MAAKPAPFGQSCSNCHKTTTSLWRRGPDNSLLCNACGLYQKHRKHARPVKSEDLKDISPLIQQVCKNGTCAGDGFCNGTGGSASCTGCPALNNRIRSLNASKSQSGRKSLSPNPSSVPSSTETKASPTPLESKPQIVSDTTTETSNGTSRRRSSHNQHEDSSPPHEPSVTFCQNCATTNTPLWRRDESGNPICNACGLYYKIHGVHRPVTMKKAIIKRRKRLVFNGNANESQHNLKRMSSGDSGSSVKQQSTRDGPFSKSFPNGNGHASGNSGEGLAEHGMNTGVLPPASTFPSYNSNFTGFLPSSFNPSPLMTLSRLAAGEPDNNGKVYYSYGPTQEQSILPLPENKHEGLPPYQNEYVPNGIRANQVVYPGQLVAVGNDSSKQLSESTTSNTDNNGVATANQSNPLGMKFHLPPILPVGESVCLPPRTSAKPRIAEGIASLLNPEEPPSNSDKQPSMSNGPKSEVSPSQSQQAPLIQSSTSPVSLQFPPEVQGSNVDKRNYALNVLSQLRSQHDLMIQELHNLNQHIQQIDEWLRSSDNENMASEHIKSSTPAVVASGALQT
Question: How did the binding [1] turn out when B2 was run?
Answer: binds

Question: And the binding (Grx4-GFP (S. pombe))?
Answer: binds
